Source: PubChem BioAssay (NCATS)
The inconclusive results got no clear call from the source; some entries with a clear call stand among them for comparison. Potencies beside an inconclusive call are fits to weak or partial responses and may not hold up. Calls of active or inactive are those of the source. Calls follow the shape of the dose curve; as a rule, active = well fitted activation curve with a large enough effect; inconclusive = small, poorly fitted or top-dose-only effect; inactive = no such curve, though single readings can be large or run the other way.

Chains of the proteins cited; added tags and fusions are not shown. Lines headed by an entry give the natural chain unless they say otherwise; changes in a name come on top.
UniProt Q8WZA2: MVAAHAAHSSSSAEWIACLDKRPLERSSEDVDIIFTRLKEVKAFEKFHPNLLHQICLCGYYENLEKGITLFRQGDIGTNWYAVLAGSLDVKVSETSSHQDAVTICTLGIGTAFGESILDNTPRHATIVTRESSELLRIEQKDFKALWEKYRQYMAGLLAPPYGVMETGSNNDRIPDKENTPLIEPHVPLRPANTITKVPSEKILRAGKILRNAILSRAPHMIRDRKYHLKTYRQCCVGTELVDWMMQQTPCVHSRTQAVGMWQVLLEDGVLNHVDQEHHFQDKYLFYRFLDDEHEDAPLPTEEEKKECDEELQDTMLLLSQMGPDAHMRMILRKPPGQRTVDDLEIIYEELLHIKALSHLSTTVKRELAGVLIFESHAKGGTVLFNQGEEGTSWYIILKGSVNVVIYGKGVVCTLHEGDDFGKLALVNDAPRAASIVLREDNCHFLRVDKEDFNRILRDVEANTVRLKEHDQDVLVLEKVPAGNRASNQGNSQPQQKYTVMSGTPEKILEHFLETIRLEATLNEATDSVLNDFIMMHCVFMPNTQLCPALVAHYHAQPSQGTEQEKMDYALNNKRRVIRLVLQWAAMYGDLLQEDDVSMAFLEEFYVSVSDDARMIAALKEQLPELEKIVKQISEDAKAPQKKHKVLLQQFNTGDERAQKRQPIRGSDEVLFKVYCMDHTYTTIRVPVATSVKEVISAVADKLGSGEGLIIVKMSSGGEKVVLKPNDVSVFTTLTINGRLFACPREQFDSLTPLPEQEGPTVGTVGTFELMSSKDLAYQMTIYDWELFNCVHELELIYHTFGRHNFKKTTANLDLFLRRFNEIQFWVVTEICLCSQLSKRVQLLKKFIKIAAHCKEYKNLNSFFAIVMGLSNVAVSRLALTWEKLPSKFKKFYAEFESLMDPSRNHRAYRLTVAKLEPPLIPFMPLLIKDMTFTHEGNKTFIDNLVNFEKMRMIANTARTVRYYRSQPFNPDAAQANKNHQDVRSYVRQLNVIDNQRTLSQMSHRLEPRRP

biological target: Rap guanine nucleotide exchange factor 4 (Homo sapiens) (UniProt Q8WZA2); assay: Confirmatory qHTS for agonist of cAMP-regulated guanine nucleotide exchange factor 4 (EPAC2) (AID 1645884); settings: EPAC2 GEF activity, Rap1B-BODIPY-GDP fluorescence; series mostly up to 154 µM;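 also: nucleotide exchange releases bodipy-GDP from Rap1 and this lowers its fluorescence; nearly all actives have a fitted effect of over 65% in size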
Potency is read from the fitted curve at half-maximal effect.

SMILES	Potency
CCCNC(=O)c1ccc(N2CCC3(CC2)CC(c2ccccc2)=NO3)c(NC(=O)c2ccccc2)c1	inconclusive: 112 µM [activator, partial curve, poor fit]
CCOC(=O)c1c(NC(=O)CSc2nnc(C)c(=O)[nH]2)sc(C)c1-c1ccc(C)cc1	inactive
COc1ccc(C2OCC3(COC(C)=O)C(C)C=C(C)C2C3C)cc1 (configuration not stated)	inactive
CCN(CC)c1ccc2cc(-c3nc(-c4ccccc4)no3)c(=O)oc2c1	active: 31.6 µM
COc1ccc(C(=O)c2oc3ccc(OC)cc3c2N)cc1	inconclusive: 112 µM [activator, partial curve]
Cc1ccc(S(=O)(=O)NCc2ccccc2)cc1C(=O)N1CCCC(C(F)(F)F)C1 (configuration not stated)	inactive
COc1ccc(NC(=O)COC(=O)CCCOc2ccc(Cl)cc2Cl)cc1Cl	inconclusive: 112 µM [activator, partial curve, poor fit]
C#Cc1ccc([C@H]2C=C(C(=O)NCc3ccccc3)O[C@@H](OCC)[C@@H]2CCCO)cc1	inconclusive: 126 µM [activator, single point]
COc1ccc(C(=O)NCCn2cc(SCc3cccc(F)c3)c3ccccc32)cc1OC	inconclusive: 50.1 µM [activator, partial curve, poor fit]
O=C1CSC(=Nc2ccccc2)N1Cc1ccccc1	inconclusive: 112 µM [activator, partial curve, poor fit]
Cc1cc2c(N)cccc2nn1	inactive
CC(=O)Nc1ccc(S(=O)(=O)N2CCN(c3cc(C)ccc3C)CC2)cc1	inconclusive: 70.8 µM [activator, partial curve, poor fit]
